Results are given in words; binding and its absence hold for the method and conditions named. In cells and extracts the contact can be indirect. Some entries that bind do so weakly or less than the wild type. Where a sequence is shown, tags or fusion partners need not be part of it.
Experiments:
[1] = biological target: full-length FAS labeled with FLAG-tag (UniProt P19096); assay: co-immunoprecipitation with anti-Flag or anti-HA antibody; both proteins co-expressed in HEK 293T cells
[2] = biological target: T1, dehydrase (DH) domain of FAS labeled at the N-terminal with Flag sequence (UniProt P19096); assay: co-immunoprecipitation with anti-Flag or anti-HA antibody; Flag-tagged domain expressed in HEK293T cells that stably express AIM-HA
T1 sequence (looked up): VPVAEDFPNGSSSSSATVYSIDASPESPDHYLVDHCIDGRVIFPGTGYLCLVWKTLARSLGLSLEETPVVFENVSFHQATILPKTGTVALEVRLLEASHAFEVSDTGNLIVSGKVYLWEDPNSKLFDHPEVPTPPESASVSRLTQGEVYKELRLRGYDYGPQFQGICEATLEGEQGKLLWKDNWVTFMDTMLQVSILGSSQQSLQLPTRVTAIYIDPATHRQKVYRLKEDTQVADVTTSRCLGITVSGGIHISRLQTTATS

[3] = biological target: T2, thioesterase (TE) domain of FAS labeled at the N-terminal with Flag sequence (UniProt P19096); assay: as above
T2 sequence (looked up): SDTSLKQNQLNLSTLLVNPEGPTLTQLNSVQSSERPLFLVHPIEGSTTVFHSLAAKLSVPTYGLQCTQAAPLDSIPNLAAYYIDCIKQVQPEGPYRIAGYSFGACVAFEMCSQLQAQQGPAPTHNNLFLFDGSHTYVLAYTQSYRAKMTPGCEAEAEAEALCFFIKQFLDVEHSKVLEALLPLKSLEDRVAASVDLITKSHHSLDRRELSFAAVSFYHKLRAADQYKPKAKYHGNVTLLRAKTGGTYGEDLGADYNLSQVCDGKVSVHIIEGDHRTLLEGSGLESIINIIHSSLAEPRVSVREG

[4] = biological target: endogenous fatty acid synthase (FAS) of mouse adipose tissue / 3T3-L1 adipocytes (mouse) (UniProt P19096); assay: co-immunoprecipitation with anti-HA antibody from adipose tissue of AIM-/- mice injected with rAIM-HA; FAS detected by Western blotting

Measured: binding

B1: recombinant AIM protein (rAIM) of mouse labeled with HA-tag (ligand, not shown: small tags and cut ends)
chain: ESPTKVQLVGGAHRCEGRVEVEHNGQWGTVCDDGWDRRDVAVVCRELNCGAVIQTPRGASYQPPASEQRVLIQGVDCNGTEDTLAQCELNYYVFDCSHEEDAGAQCENPDSDLLFIPEDVRLVDGPGHCQGRVEVLHQSQWSTVCKAGWNLQVSKVVCRQLGCGRALLTYGSCNKNTQGKGPIWMGKMSCSGQEANLRSCLLSRLENNCTHGEDTWMECEDPFELKLVGGDTPCSGRLEVLHKGSWGSVCDDNWGEKEDQVVCKQLGCGKSLHPSPKTRKIYGPGAGRIWLDDVNCSGKEQSLEFCRHRLWGYHDCTHKEDVEVICTDFDV
binds: [1] | [2] | [3] | [4]

Reference: patent EP2573192A1, “METHOD AND KIT FOR DIAGNOSING AIM-RELATED ILLNESS” (Miyazaki, Toru, priority 2010, dated 2011)
